# These are yes or no findings as the source states them, for the method shown. Binding seen in cells or lysates may run through a third protein. Here binding means that the protein was enriched with, or labelled near, the bait; the list need not be complete.
# Target: FLAG-tagged full-length USP20 (human)
# Assay: affinity purification with mass spectrometry; FLAG IP from transfected HEK293, four technical replicates, against the empty vector; S-Trap digestion, data-independent LC-MS
binder,measurement,value
"endogenous USP19 (enzyme, UniProt O94966 1-1318) MSGGASATGPRRGPPGLEDTTSKKKQKDRANQESKDGDPRKETGSRYVAQAGLEPLASGDPSASASHAAGITGSRHRTRLFFPSSSGSASTPQEEQTKEGACEDPHDLLATPTPELLLDWRQSAEEVIVKLRVGVGPLQLEDVDAAFTDTDCVVRFAGGQQWGGVFYAEIKSSCAKVQTRKGSLLHLTLPKKVPMLTWPSLLVEADEQLCIPPLNSQTCLLGSEENLAPLAGEKAVPPGNDPVSPAMVRSRNPGKDDCAKEEMAVAADAATLVDEPESMVNLAFVKNDSYEKGPDSVVVHVYVKEICRDTSRVLFREQDFTLIFQTRDGNFLRLHPGCGPHTTFRWQVKLRNLIEPEQCTFCFTASRIDICLRKRQSQRWGGLEAPAARVGGAKVAVPTGPTPLDSTPPGGAPHPLTGQEEARAVEKDKSKARSEDTGLDSVATRTPMEHVTPKPETHLASPKPTCMVPPMPHSPVSGDSVEEEEEEEKKVCLPGFTGLVNLGNTCFMNSVIQSLSNTRELRDFFHDRSFEAEINYNNPLGTGGRLAIGFAVLLRALWKGTHHAFQPSKLKAIVASKASQFTGYAQHDAQEFMAFLLDGLHEDLNRIQNKPYTETVDSDGRPDEVVAEEAWQRHKMRNDSFIVDLFQGQYKSKLVCPVCAKVSITFDPFLYLPVPLPQKQKVLPVFYFAREPHSKPIKFLVSVSKENSTASEVLDSLSQSVHVKPENLRLAEVIKNRFHRVFLPSHSLDTVSPSDTLLCFELLSSELAKERVVVLEVQQRPQVPSVPISKCAACQRKQQSEDEKLKRCTRCYRVGYCNQLCQKTHWPDHKGLCRPENIGYPFLVSVPASRLTYARLAQLLEGYARYSVSVFQPPFQPGRMALESQSPGCTTLLSTGSLEAGDSERDPIQPPELQLVTPMAEGDTGLPRVWAAPDRGPVPSTSGISSEMLASGPIEVGSLPAGERVSRPEAAVPGYQHPSEAMNAHTPQFFIYKIDSSNREQRLEDKGDTPLELGDDCSLALVWRNNERLQEFVLVASKELECAEDPGSAGEAARAGHFTLDQCLNLFTRPEVLAPEEAWYCPQCKQHREASKQLLLWRLPNVLIVQLKRFSFRSFIWRDKINDLVEFPVRNLDLSKFCIGQKEEQLPSYDLYAVINHYGGMIGGHYTACARLPNDRSSQRSDVGWRLFDDSTVTTVDESQVVTRYAYVLFYRRRNSPVERPPRAGHSEHHPDLGPAAEAAASQASRIWQELEAEEEPVPEGSGPLGPWGPQDWVGPLPRGPTTPDEGCLRYFVLGTVAALVALVLNVFYPLVSQSRWR",binding,binds
